Measured values from the supplement of paper PMC7125110.
± gives the standard error. The uncertainty is large for many entries.

B1: glmS ribozyme (parent)
chain: AUAAAAGCGCCAGAACUACAGAAAUGUAGUUGACGAGGAGGAGGUUUAUCGAAUUUUCGGCGGAUGCCUCCAAA

Variants of: B1
Assay: self-cleavage kobs at 640 uM GlcN6P; higher = faster cleavage; RNA array
Conditions: with glucosamine-6-phosphate
Outline: (§1)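 Barcoded glmS ribozyme variants on sequenced MiSeq chips were transcribed in situ by E. coli RNA polymerase and tracked through a hybridised Cy3 probe at 37 °C. Glucosamine-6-phosphate (40 μM to 10 mM) in HEPES/KCl/Mg(OAc)2 buffer was flowed in, and tiles were imaged over ~14 h. Signals were normalised to baseline and to non-cleaving reference variants; per-tile medians were fit to one- or two-exponential decays to give kobs. kcat and KM came from weighted Michaelis–Menten fits across concentrations.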

Row | Variant | self-cleavage kobs at 640 uM GlcN6P [s⁻¹]
1 | AUAAAAGCGCCCGAACUACAGAAAUGUAGUUGACGAGGAGGAGGUCUAUCGAAUUUUCGGCGGAUGCCUACAAA [A12C U46C C70A] | 2.6e-05 ± 1.7e-05
2 | AUAAAAGCGCCAUAACUACAGAAAUGUAGUUGACGAGGAGGAGGUUUAUCGGAUUUUCGGCGGAUGCCUCCAAA [G13U A52G] | 2.37e-05 ± 1.5e-05
3 | AUAAAAGCGCCCGAACUACAGAAAUGUAGUUGACGAGGAGGAGGUUUAUCGAAUAUUAGGCGGAUGCCUCCAAA [A12C U55A C58A] | 2.08e-05 ± 1.3e-05
4 | AUAAAAGCGCAAGUACUACAGAAAUGUAGUUGACGAGGAGGAGGUUUAUCGAAUUUUCGGCGGAUGCCUCUAAA [C11A A14U C71U] | 3.06e-05 ± 1.9e-05
5 | AUAAAAGCGCCAAAACUACAGAAAUGUAGUUGACGAGGACGAGGUUUAUCGAAUUUUCGGCGGAUGCCUCCAAA [G13A G40C] | 2.12e-05 ± 1.9e-05
6 | AUAAAAGCGCCACAACUACAGAAAUGUAGUUGACGAGGAGGAGGUUUAUCGAAUUAUCGGCGGAUGCCUCCAAA [G13C U56A] | 2.39e-05 ± 1.7e-05
7 | AUAAAAGCGCCACAACUACAGAAAUGUAGUUGACGAGGAGUAGGUUUAUCGAAUUUUCGGCGGAUGCCUUCAAA [G13C G41U C70U] | 5.96e-05 ± 4.2e-05
8 | AUAAAAGCGCCAAAACUACAGAAAUGUAAUUGACGAGGAGGAGGUUUAUCGAAUUUUCGGCGGAUGCCUGCAAA [G13A G29A C70G] | 3.72e-05 ± 1.9e-05
9 | AUAAAAGCGCCAAAACUACAGAAAUGUAGUUGACGAGGCGGAGGUUUAUCGAAUUUUCGGCGGAUGCCUCCAAA [G13A A39C] | 2.89e-05 ± 1.6e-05
10 | AUAAAAGCGCCAAAACUACAGAAAUGUAGUUGACGAGGGGGAGGUUUAUCGAAUUUUCGGCGGAUGCCUCCAAA [G13A A39G] | 0.00012 ± 6.3e-05
11 | AUAAAAGCGCGAGAUCUACAGAAAUGUAAUUGACGAGGAGGAGGUUUAUCGAAUUUUCGGAGGAUGCCUCCAAA [C11G A15U G29A C61A] | 3.4e-05 ± 2.5e-05
12 | AUAAAAGCGCCCUAACUACAGAAAUGUAGUUGACGAGGAGGAGGUUUAUCGAAUUUUCGGCGGAUGACUCCAAA [A12C G13U C67A] | 4.27e-05 ± 2.6e-05
13 | AUAAAAGCGCAAGAACUACAGAAAUGUAGUUGACGGGGAGGAGGUUUAUCGAAUUUUCGGCGGAUGCCUACAAA [C11A A36G C70A] | 2.78e-05 ± 2.5e-05
14 | AUAAAAGCGCCCGAACUACAGAAAUGUAGUUGUCGAGGAGGAGGUUUAUCGAAUUUUCGGCGGAUGCCUCCAAA [A12C A33U] | < 1e-05
15 | AUAAAAGCGCCAAAACUACAGAAAUGUAGUUGACGAGGAGGAGGUUUAUCGAAUUUUCGGCGGAUGCCACCAAA [G13A U69A] | 2.13e-05 ± 1.5e-05
16 | AUAAAAGCGCCGGAACUACAGAAAUGUAGUUGAUGAGGAGGAGGUUUAUCGAAUUUUUGGCGGAUGCGUCCAAA [A12G C34U C58U C68G] | 4e-05 ± 3.3e-05
17 | AUAAAAGCGCCAAAACUACAGAAAUGUAGUUGACGAGGAGGAGGUUUAUCGAAGUUUCGGCGGAUGCAUCCAAA [G13A U54G C68A] | 3.17e-05 ± 2.5e-05
18 | AUAAAAGCGCGAGAACUACAGAAAUGUAGUUGACGAGGAGGAGGUUUAUUGAAUUUUGGGCGGAUGCCUCCAAA [C11G C50U C58G] | 4.14e-05 ± 2.9e-05
19 | AUAAAAGCGCCGGAACUACAGAAAUGUAGUUGACGAGGAGGAGGUUUAUCGAAUUUUCGGCGGAUGCAUCCAAA [A12G C68A] | 0.00025 ± 0.00015
20 | AUAAAAGCGCCCGAACUACAGAAAUGUAGAGGACGAGUAGGAGGUUUAUCGAAUUUUCGGCGGAUGGCUCCAAA [A12C U30A U31G G38U C67G] | 2.82e-05 ± 2.4e-05
21 | AUAAAAGCGCCGGAACUACAGAAAUGUAGUUGACGAGGAGGAGGUUUAUGGAAUUUUCGGCCGAUGCCUGCAAA [A12G C50G G62C C70G] | 0.000179 ± 9.2e-05
22 | AUAAAAGCGCCCGUACUACAGAAAUGUAGAUGACGAGGAGGAGGUUUAUCGAAUUUUCGGCGGAUGCCUCCAAA [A12C A14U U30A] | 2.53e-05 ± 1.9e-05
23 | AUAAAAGCGCCGGAACUACAGAAAUGUAGUUAACGAGGAGGAGGUUUAUCGAAUUUUCGGCGGAUGGUUCCAAA [A12G G32A C67G C68U] | 7.48e-05 ± 3.9e-05
24 | AUAAAAGCGCCAAAACUACAGAAAUGUAGUUUACGAGGUGGAGGUUUAUCGAAUUUUCGGCGGAUGCCUCCAAA [G13A G32U A39U] | 2.19e-05 ± 1.3e-05
25 | AUAAAAGCGCCUGAACUACAGAAAUGUAGUUGACGAGGAGGAGGUUUAUCGAAUUUUCGGCGGAUGCCGGCAAA [A12U U69G C70G] | 4.76e-05 ± 2.4e-05
26 | AUAAAAGCGCCGGAACUACAGAAAUGUAGUAGACGAGGAGGAGGAUUAUCGAAUUUUCGGCGGAUGCCUCCAAA [A12G U31A U45A] | 1.63e-05 ± 1.4e-05
27 | AUAAAAGCGCCAAAACUACAGAAAUGUAGUUGACGAGGAGGAGGUUUAUAGAAUUUUCGGCGGAUGCCACCAAA [G13A C50A U69A] | 4.05e-05 ± 2.9e-05

Some of the entries so far, as labelled records:
AUAAAAGCGCCCUAACUACAGAAAUGUAGUUGACGAGGAGGAGGUUUAUCGAAUUUUCGGCGGAUGACUCCAAA [A12C G13U C67A]
  self-cleavage kobs at 640 uM GlcN6P [s⁻¹] = 4.27e-05 ± 2.6e-05
AUAAAAGCGCAAGAACUACAGAAAUGUAGUUGACGGGGAGGAGGUUUAUCGAAUUUUCGGCGGAUGCCUACAAA [C11A A36G C70A]
  self-cleavage kobs at 640 uM GlcN6P [s⁻¹] = 2.78e-05 ± 2.5e-05

Variants of: B1
Assay: self-cleavage kobs at 2500 uM GlcN6P; higher = faster cleavage; RNA array
Conditions: with glucosamine-6-phosphate
Outline: as §1

Row | Variant | self-cleavage kobs at 2500 uM GlcN6P [s⁻¹]
28 | AUAAAAGCGCCACAACUACAGAAAUGUAGUUGACGAGGAGUAGGUUUAUCGAAUUUUCGGCGGAUGCCUUCAAA [G13C G41U C70U] | 3.77e-05 ± 2e-05
29 | AUAAAAGCGCCAAAACUACAGAAAUGUAGUUGACGAGGGGGAGGUUUAUCGAAUUUUCGGCGGAUGCCUCCAAA [G13A A39G] | 0.000578 ± 0.00032
30 | AUAAAAGCGCCGGAACUACAGAAAUGUAGUUGAUGAGGAGGAGGUUUAUCGAAUUUUUGGCGGAUGCGUCCAAA [A12G C34U C58U C68G] | 2.8e-05 ± 2.7e-05
31 | AUAAAAGCGCCGGAACUACAGAAAUGUAGUUGACGAGGAGGAGGUUUAUGGAAUUUUCGGCCGAUGCCUGCAAA [A12G C50G G62C C70G] | 0.000266 ± 0.00017
32 | AUAAAAGCGCCCGUACUACAGAAAUGUAGAUGACGAGGAGGAGGUUUAUCGAAUUUUCGGCGGAUGCCUCCAAA [A12C A14U U30A] | 1.86e-05 ± 1.4e-05
33 | AUAAAAGCGCCGGAACUACAGAAAUGUAGUUAACGAGGAGGAGGUUUAUCGAAUUUUCGGCGGAUGGUUCCAAA [A12G G32A C67G C68U] | 0.00102 ± 0.00067

Variants of: B1
Assay: self-cleavage kobs at 10000 uM GlcN6P; higher = faster cleavage; RNA array
Conditions: with glucosamine-6-phosphate
Outline: as §1

Row | Variant | self-cleavage kobs at 10000 uM GlcN6P [s⁻¹]
34 | AUAAAAGCGCCACAACUACAGAAAUGUAGUUGACGAGGAGUAGGUUUAUCGAAUUUUCGGCGGAUGCCUUCAAA [G13C G41U C70U] | 3.96e-05 ± 2e-05
35 | AUAAAAGCGCCCUAACUACAGAAAUGUAGUUGACGAGGAGGAGGUUUAUCGAAUUUUCGGCGGAUGACUCCAAA [A12C G13U C67A] | 2.3e-05 ± 1.2e-05
36 | AUAAAAGCGCCAAAACUACAGAAAUGUAGUUGACGAGGAGGAGGUUUAUCGAAUUUUCGGCGGAUGCCACCAAA [G13A U69A] | 1.99e-05 ± 1.2e-05
37 | AUAAAAGCGCCGGAACUACAGAAAUGUAGUUGAUGAGGAGGAGGUUUAUCGAAUUUUUGGCGGAUGCGUCCAAA [A12G C34U C58U C68G] | 3.22e-05 ± 2.5e-05
